Measurements reported in PubChem BioAssay AID652243 (Drosophila RNAi Screening Center, 2013)

Purpose: 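Fly genes required for human androgen receptor driven transcription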 (primary screen)
Cells: Drosophila S2R+ cells
Knock-down reagent: long dsRNA against Drosophila genes
Duration: 72 h (48 h, then 24 h hormone)
Challenge: synthetic androgen R1881 at 10 nM for 24 h
Read-out: 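Firefly light from an androgen-responsive reporter and Renilla control light per well, raw and unnormalised, for each of two replicates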
Reading the numbers: firefly reporter light: higher = more light from androgen-responsive reporter; Renilla control light: higher = more constitutive control signal (cell number, transfection)
Rule for the call: 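Hit when the log firefly-to-Renilla ratio dropped or increased by a fixed fold versus the mean of GFP or LacZ controls across duplicate plates; lowering cut given as 1.5 and as 3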
Meaning of the calls: active = hit: reporter lowered or raised; inactive = no hit
The screen tested about 24,000 reagents; this is a random part of those with a known target gene and a result. In the full data, 246 (1%) got an active call. 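Plates not normalised; calls are printed but the firefly/Renilla ratio behind them is not deposited; fold cut for lowering reported inconsistently.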 The raw values are shown without normalisation. Unmarked entries are inactive. Names joined by + are all predicted targets of the reagent. Reagent sequences are not shown. Not given: the amount of reagent.

target gene	amplicon	firefly reporter light, replicate 1	firefly reporter light, replicate 2	Renilla control light, replicate 1	Renilla control light, replicate 2
TotX	DRSC22206	5.20e5	5.80e5	2.18e6	1.59e6
TotX	DRSC29108	4.84e5	4.93e5	1.60e6	1.45e6
Orct	DRSC16777	1.06e5	1.32e5	8.66e5	1.01e6
Orct	DRSC25574	5.62e5	4.08e5	4.11e5	4.33e5
CG31674	DRSC03208	1.04e5	72416	1.01e6	8.12e5
CG31674	DRSC27032	4.73e5	2.13e5	9.21e5	2.94e5
CG7730	DRSC10909	52151	56620	7.30e5	6.33e5
Ugt37A3	DRSC15937	1.87e5	2.58e5	2.52e6	2.84e6
Zfrp8	DRSC04352	1.62e5	2.49e5	1.50e6	1.70e6
Ctl1	DRSC08303	64707	72918	9.34e5	1.16e6
MetRS	DRSC22533	9.02e5	9.91e5	1.39e6	1.15e6
ZC3H3	DRSC10696	22824	21956	2.87e5	1.95e5
ZC3H3	DRSC28763	1.33e5	96455	4.80e5	4.58e5
ZC3H3	DRSC39048	72002	92672	3.60e5	3.47e5
Rab39	DRSC17827	1.13e5	1.47e5	2.26e6	2.75e6
CG8289	DRSC20101	78805	1.24e5	7.28e5	6.48e5
CG8289	DRSC25677	1.17e6	9.87e5	1.27e6	1.34e6
lilli	DRSC00708	1.92e5	1.62e5	3.00e6	2.12e6
NKAIN	DRSC04531	6.42e5	7.61e5	1.01e6	1.58e6
NKAIN	DRSC22470	3.30e5	8.28e5	1.20e6	1.59e6
NKAIN	DRSC29918	9.13e5	9.25e5	1.13e6	1.40e6
CG10413	DRSC02052	8.85e5	1.26e6	1.19e6	1.54e6
Su(var)2-10	DRSC07721	2.15e6	1.50e6	2.48e6	1.27e6
Su(var)2-10	DRSC28335	7.86e5	7.85e5	9.27e5	1.27e6
NFAT	DRSC18991	1.23e6	1.00e6	6.78e5	5.64e5
NFAT	DRSC19393	8.57e5	1.11e6	5.42e6	5.78e6
NFAT	DRSC24828	4.35e5	3.84e5	4.03e5	4.30e5
NFAT	DRSC29663	3.35e5	5.96e5	1.16e6	1.16e6
slou	DRSC17058	2.00e5	2.47e5	3.02e6	3.23e6
slou	DRSC25233	2.89e5	1.36e5	8.69e5	5.22e5
Cyp4s3	DRSC20241	4.10e5	4.53e5	3.69e6	3.96e6
Cyp4s3	DRSC22340	5.72e5	6.40e5	1.44e6	1.27e6
Cyp4s3	DRSC24027	4.90e5	3.06e5	6.31e5	5.05e5
Lsp1beta	DRSC00757	7.69e5	8.68e5	1.79e6	1.48e6
Lsp1beta	DRSC24940	3.30e5	4.67e5	3.47e5	3.82e5
CG8119 + asRNA:CR43299	DRSC27407	3.11e5	2.68e5	6.38e5	6.38e5
CG6429	DRSC06986	79997	73978	1.19e6	1.19e6
cic	DRSC16918	99209 (active)	1.26e5	2.44e6	2.26e6
cic	DRSC21243	1.85e5	1.76e5	4.20e5	4.66e5
cic	DRSC23217	5.40e5	6.77e5	1.98e5	2.56e5
cic	DRSC25516	8.93e5	5.38e5	7.36e5	5.07e5
cic	DRSC25800	14178	16565	1.35e5	1.03e5
cic	DRSC30090	1.39e6	1.26e6	1.46e6	1.36e6

As entered above:
Under “Renilla control light, replicate 2”, NKAIN [DRSC22470] reads 1.59e6
Entry for slou [DRSC17058] in “Renilla control light, replicate 1”: 3.02e6
